Data taken from PubChem BioAssay AID540303 (National Center for Advancing Translational Sciences (NCATS), 2011).
In all, about 330,000 compounds went through this assay and about 1,000 (0.3%) were called active. The shares of active, inactive and inconclusive entries below differ from those in the screen. Calls come from the whole dose curve; as a rule, active = well fitted inhibition curve with a large enough effect; inconclusive = small, poorly fitted or top-dose-only effect; inactive = no such curve, though single readings can be large or run the other way; tested in mouse RAW 264.7 cells. A potency beside an inconclusive call is a rough fit, not a confirmed value.

Experiment: qHTS for Inhibitors of Cell Surface uPA Generation; note: nearly all actives have a fitted effect of over 55% in size
Settings: cell surface uPA generation assay; series mostly up to 38.3 µM
How it was run: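 Validation set in qHTS format. RAW 264.7 cells were pre-plated overnight and then exposed to compounds (up to 38.3 uM final) for 24 h at 37 C in 5% CO2, followed by a luminescent ATP-Lite measurement.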
Potency is the fitted concentration of half-maximal effect.

Row | SMILES | Potency
1 | Cc1sc2ncnc(Sc3nnnn3-c3ccccc3)c2c1C | inconclusive: 7.08 µM [inhibitor, partial curve, poor fit]
2 | O=C(O)Cc1ccc2sc(-c3ccccc3)nc2c1 | inconclusive: 10 µM [inhibitor, partial curve, poor fit]
3 | CC(=O)Nc1ccc(-c2cn3cc(C)ccc3n2)cc1 | active: 4.47 µM
4 | COc1ccc(Cc2nc(-c3ccc(Cl)cc3)no2)cc1 | inactive
5 | CCOc1ccc(-n2c(-c3ccco3)n[nH]c2=S)cc1 | inactive
6 | O=c1[nH]c(Sc2ccc([N+](=O)[O-])cc2[N+](=O)[O-])nc2ccccc12 | inconclusive: 12.6 µM [inhibitor, single point]
7 | Cc1nc2ccccn2c1C(=O)/C=C/c1cccc([N+](=O)[O-])c1 | inconclusive: 3.16 µM [inhibitor, single point]
8 | Cc1ccc(Nc2nc(N)nc(CC#N)n2)cc1 | inactive
9 | COc1ccc([C@H]2CC(=O)C=C(c3ccc4ncccc4c3)C2)cc1 | inconclusive: 10 µM [inhibitor, partial curve, poor fit]
10 | CC(CCc1ccco1)NC(=O)c1cc2c(-c3ccccc3F)nn(C)c2s1 (stereo not given) | inconclusive: 10 µM [inhibitor, single point]
11 | O=C(Nc1sc2c(c1C(=O)O)CCC2)c1ccccc1F | inconclusive: 28.2 µM [inhibitor, single point]
12 | O=C(NCc1nc2ccccc2[nH]1)C1=C[C@@H](C2CCCCC2)C[C@@H](OCc2ccc(CO)cc2)O1 | inconclusive: 12.6 µM [inhibitor, single point]
13 | Cc1ccc([N+](=O)[O-])cc1N/C=C/C(=O)c1ccco1 | inconclusive: 12.6 µM [inhibitor, single point]
14 | COc1ccc(OC)c(C(=O)c2nc3c(n2O)CCCCC3)c1 | inactive
15 | CC(=O)Nc1cccc(-c2nnc(-c3ccccc3)o2)c1 | inactive
16 | CCN1C(=O)N(S(=O)(=O)c2ccc(C)cc2)[C@@H](c2ccccc2)C(C(=O)OC)=C1C | inconclusive: 12.6 µM [inhibitor, single point]
17 | Cc1cc(CNC(=O)c2ccc3c(c2)OCO3)c2ccccc2n1 | inconclusive: 28.2 µM [inhibitor, single point]
18 | O=C1N(c2ccccc2)CCN1c1ccccc1 | inconclusive: 3.55 µM [inhibitor, partial curve, poor fit]
19 | Cc1ccccc1Nc1nc2ccccc2s1 | inconclusive: 12.6 µM [inhibitor, single point]
20 | Nc1cc(-c2ccc(Br)cc2)nn1S(=O)(=O)c1cccc2nsnc12 | inconclusive: 11.2 µM [inhibitor, single point]
21 | COc1cccc2c(=O)c(C(=O)NCCc3ccccc3)c[nH]c12 | inconclusive: 12.6 µM [inhibitor, partial curve, poor fit]
22 | CCN(C(=O)C(C)N1C(=O)/C(=C/c2ccco2)SC1=S)C1CCS(=O)(=O)C1 (stereo not given) | inconclusive: 3.55 µM [inhibitor, single point]
23 | O=C(O)CSc1nc2ccc(Cl)cc2[nH]1 | inactive
24 | CC(=O)Nc1cccc(C(=O)N2CCN(S(=O)(=O)c3ccc(C4CCCCC4)cc3)CC2)c1 | inconclusive: 22.4 µM [inhibitor, partial curve, poor fit]

A second format for some results above.
Row,SMILES,Potency
1,Cc1sc2ncnc(Sc3nnnn3-c3ccccc3)c2c1C,"inconclusive: 7.08 µM [inhibitor, partial curve, poor fit]"
3,CC(=O)Nc1ccc(-c2cn3cc(C)ccc3n2)cc1,active: 4.47 µM
4,COc1ccc(Cc2nc(-c3ccc(Cl)cc3)no2)cc1,inactive
6,O=c1[nH]c(Sc2ccc([N+](=O)[O-])cc2[N+](=O)[O-])nc2ccccc12,"inconclusive: 12.6 µM [inhibitor, single point]"
7,Cc1nc2ccccn2c1C(=O)/C=C/c1cccc([N+](=O)[O-])c1,"inconclusive: 3.16 µM [inhibitor, single point]"
8,Cc1ccc(Nc2nc(N)nc(CC#N)n2)cc1,inactive
9,COc1ccc([C@H]2CC(=O)C=C(c3ccc4ncccc4c3)C2)cc1,"inconclusive: 10 µM [inhibitor, partial curve, poor fit]"
10,CC(CCc1ccco1)NC(=O)c1cc2c(-c3ccccc3F)nn(C)c2s1 (stereo not given),"inconclusive: 10 µM [inhibitor, single point]"
11,O=C(Nc1sc2c(c1C(=O)O)CCC2)c1ccccc1F,"inconclusive: 28.2 µM [inhibitor, single point]"
12,O=C(NCc1nc2ccccc2[nH]1)C1=C[C@@H](C2CCCCC2)C[C@@H](OCc2ccc(CO)cc2)O1,"inconclusive: 12.6 µM [inhibitor, single point]"
13,Cc1ccc([N+](=O)[O-])cc1N/C=C/C(=O)c1ccco1,"inconclusive: 12.6 µM [inhibitor, single point]"
14,COc1ccc(OC)c(C(=O)c2nc3c(n2O)CCCCC3)c1,inactive
16,CCN1C(=O)N(S(=O)(=O)c2ccc(C)cc2)[C@@H](c2ccccc2)C(C(=O)OC)=C1C,"inconclusive: 12.6 µM [inhibitor, single point]"
18,O=C1N(c2ccccc2)CCN1c1ccccc1,"inconclusive: 3.55 µM [inhibitor, partial curve, poor fit]"
19,Cc1ccccc1Nc1nc2ccccc2s1,"inconclusive: 12.6 µM [inhibitor, single point]"
20,Nc1cc(-c2ccc(Br)cc2)nn1S(=O)(=O)c1cccc2nsnc12,"inconclusive: 11.2 µM [inhibitor, single point]"
21,COc1cccc2c(=O)c(C(=O)NCCc3ccccc3)c[nH]c12,"inconclusive: 12.6 µM [inhibitor, partial curve, poor fit]"
22,CCN(C(=O)C(C)N1C(=O)/C(=C/c2ccco2)SC1=S)C1CCS(=O)(=O)C1 (stereo not given),"inconclusive: 3.55 µM [inhibitor, single point]"
23,O=C(O)CSc1nc2ccc(Cl)cc2[nH]1,inactive
24,CC(=O)Nc1cccc(C(=O)N2CCN(S(=O)(=O)c3ccc(C4CCCCC4)cc3)CC2)c1,"inconclusive: 22.4 µM [inhibitor, partial curve, poor fit]"

Remaining list, next part:

Row | SMILES | Potency
25 | COCc1cc(=O)n2[nH]c(-c3ccc(C)cc3)cc2n1 | inconclusive: 10 µM [inhibitor, partial curve, poor fit]
26 | Cc1cc(-c2ccc(C)c(S(=O)(=O)NCCCN3CCN(c4ccccc4)CC3)c2)on1 | inconclusive: 12.6 µM [inhibitor, single point]
27 | Cc1ccc(S(=O)(=O)N2CCCCC2)cc1C(=O)Nc1ccc(S(=O)(=O)Nc2ncccn2)cc1 | inactive
28 | Cc1nc(NC(=O)/C=C/c2ccccc2)n[nH]1 | inactive
29 | CNS(=O)(=O)c1cc2c3c(cccc3c1)C(=O)NC2=O | active: 7.08 µM
30 | Cc1nc(NC(=S)Nc2ccccc2)sc1C | inconclusive: 2.24 µM [inhibitor, partial curve, poor fit]
31 | CC(=O)Nc1ccc(S(=O)(=O)N/N=C/c2ccc(C)o2)cc1 | inactive
32 | Cc1ccc(-n2nnnc2CNC(=O)c2ccc([N+](=O)[O-])o2)cc1C | inconclusive: 12.6 µM [inhibitor, single point]
33 | CCN(CC)S(=O)(=O)c1ccc(C(=O)Nc2nnc(-c3ccco3)o2)cc1 | inconclusive: 4.47 µM [inhibitor, partial curve, poor fit]
34 | CCCn1c2ccc(C)cc2c2nnc(SCCN3CCCCC3)nc21 | inactive
35 | O=C(O)c1[nH]c2ccc([N+](=O)[O-])cc2c1-c1ccccc1 | inactive
36 | CC(=O)Nc1ccc2cc3ccc(NC(C)=O)cc3nc2c1 | inconclusive: 12.6 µM [inhibitor, single point]
37 | COc1ccc(-c2nnc(SCC(=O)NNC(=O)Cc3ccccc3)n2C)cc1OC | inactive
38 | CCOc1ccccc1NC(=O)C1CCN(S(=O)(=O)c2c(C)nn(C)c2C)CC1 | inconclusive: 1.12 µM [inhibitor, partial curve, poor fit]
39 | COc1ccc(NC(=O)C(=O)c2cn(CC(=O)N3CCCC3)c3ccccc23)cc1OC | inconclusive: 11.2 µM [inhibitor, partial curve, poor fit]
40 | CCCCC1C(=O)N(c2ccccc2)N(c2ccc(O)cc2)C1=O (stereo not given) | inconclusive: 0.891 µM [inhibitor, full curve, poor fit]
41 | O=C(NC1CCN(Cc2ccccc2)CC1)c1cccc(NS(=O)(=O)c2ccc(Br)cc2)c1 | inactive
42 | Cc1ccccc1OCC(=O)NNC(=O)c1ccc(-c2ccccc2)cc1 | inactive
43 | c1ccc(-c2nc(N3CCCC3)nc3ccccc23)cc1 | inactive
44 | CN(C)C1=NC[C@H](Cc2ccccc2)N1CCC1CCCC1 | inconclusive: 11.2 µM [inhibitor, partial curve, poor fit]
45 | Cc1ccc(-n2nnnc2SCCNS(=O)(=O)c2ccccc2)cc1C | inactive
46 | COc1cc(/C=N/NC(=O)c2ccc3c(c2)OCCO3)cc(Br)c1O | inconclusive: 11.2 µM [inhibitor, partial curve, poor fit]
47 | CC1=NNC(=O)/C1=C\c1cn(-c2ccccc2)nc1-c1cccs1 | inconclusive: 15.8 µM [inhibitor, single point]
48 | O=C(NCCc1ccccc1)c1ccc(-c2ccccc2Cl)o1 | inactive

Row | SMILES | Potency
49 | O=C(OCc1ccc([N+](=O)[O-])cc1)c1cc([N+](=O)[O-])ccc1N1CCOCC1 | inactive
50 | N#Cc1c(/N=C/C=C/c2ccccc2)sc2c1CCCC2 | inactive
51 | O=C(C[n+]1cccc(CNC(=O)c2ccc(OC(F)F)cc2)c1)Nc1ccc(F)cc1 | inactive
52 | O=C(CCS(=O)(=O)c1ccccc1)Nc1nc2c(s1)CCCC2 | inconclusive: 8.91 µM [inhibitor, single point]
53 | C/C=C/C=C/C(=O)[C@@H]1[C@@H]([C@]2(C)OC(=O)C(C)=C2O)[C@H]2/C(=C(O)/C=C/C=C/C)C(=O)[C@]1(C)C(=O)C2(C)O (stereo not given in full) | inconclusive: 10 µM [inhibitor, partial curve, poor fit]
54 | CCN(CC)CCOCCOC(=O)C1(c2ccccc2)CCCC1 | inconclusive: 8.91 µM [inhibitor, partial curve, poor fit]
55 | Cc1oc2c(c1C(=O)NCc1cccnc1)C(=O)c1ccccc1C2=O | inconclusive: 1.26 µM [inhibitor, full curve, poor fit]
56 | CCc1cc2c(Nc3ccc(O)cc3)nc(C)nc2s1 | inconclusive: 11.2 µM [inhibitor, single point]
57 | FC(F)(F)c1nnc2c3ccccc3c(Cl)nn12 | inconclusive: 2 µM [inhibitor, full curve, poor fit]
58 | CC1CCN(C(c2ccccc2)c2nnnn2C(C)(C)C)CC1 (stereo not given) | inactive
59 | Cn1nnnc1Sc1ncnc2scc(-c3ccccc3C(F)(F)F)c12 | inconclusive: 10 µM [inhibitor, partial curve, poor fit]
60 | O=C(Nc1nc2ccccc2[nH]1)c1cccc(Cl)c1 | inconclusive: 10 µM [inhibitor, partial curve]
61 | O=C(c1cccc(S(=O)(=O)N2CCOCC2)c1)N(Cc1ccco1)Cc1cccs1 | inconclusive: 0.562 µM [inhibitor, full curve, poor fit]
62 | CC(=O)N1CCN(CC(O)COc2ccc(S(=O)(=O)N3CCOCC3)cc2)CC1 (stereo not given) | inactive
63 | COc1ccc(NC(=O)c2ccccc2NC(=O)C2CCCCC2C(=O)O)cc1 (stereo not given) | inactive
64 | CCn1cnc2cc(NC(=O)c3ccc(C)cc3)ccc21 | inconclusive: 15.8 µM [inhibitor, single point]
65 | CCOc1cc(/C=C(/C#N)c2ccc(Cl)cc2)cc(Cl)c1OCC(=O)O | inconclusive: 10 µM [inhibitor, partial curve, poor fit]
66 | CCCN1C2CCCC1CC(NC(=O)c1ccc(C(C)(C)C)cc1)C2 (stereo not given) | inconclusive: 10 µM [inhibitor, partial curve, poor fit]
67 | Cc1ccc(C(=O)NCCSc2ccc(Cl)cc2)cc1S(=O)(=O)Nc1ccccc1 | inconclusive: 22.4 µM [inhibitor, single point]
68 | O=c1cc(CO)oc2ccccc12 | inactive
69 | CCCc1c(NC(=O)Nc2ccc(F)cc2)cnn1-c1ccccc1 | inconclusive: 4.47 µM [inhibitor, partial curve, poor fit]
70 | C=CCS/C(N)=N\N=C\c1c(O)ccc2ccccc12 | inconclusive: 6.31 µM [inhibitor, single point]
